According to paper PMC10341432:
Results are given in words; binding and its absence hold for the method and conditions named. In cells and extracts the contact can be indirect. These calls come from enrichment with a bait or labelling near it, and not all partners need be listed.

Sequences of proteins named here, by UniProt entry; tags and fusion partners are left off.
UniProt P08183: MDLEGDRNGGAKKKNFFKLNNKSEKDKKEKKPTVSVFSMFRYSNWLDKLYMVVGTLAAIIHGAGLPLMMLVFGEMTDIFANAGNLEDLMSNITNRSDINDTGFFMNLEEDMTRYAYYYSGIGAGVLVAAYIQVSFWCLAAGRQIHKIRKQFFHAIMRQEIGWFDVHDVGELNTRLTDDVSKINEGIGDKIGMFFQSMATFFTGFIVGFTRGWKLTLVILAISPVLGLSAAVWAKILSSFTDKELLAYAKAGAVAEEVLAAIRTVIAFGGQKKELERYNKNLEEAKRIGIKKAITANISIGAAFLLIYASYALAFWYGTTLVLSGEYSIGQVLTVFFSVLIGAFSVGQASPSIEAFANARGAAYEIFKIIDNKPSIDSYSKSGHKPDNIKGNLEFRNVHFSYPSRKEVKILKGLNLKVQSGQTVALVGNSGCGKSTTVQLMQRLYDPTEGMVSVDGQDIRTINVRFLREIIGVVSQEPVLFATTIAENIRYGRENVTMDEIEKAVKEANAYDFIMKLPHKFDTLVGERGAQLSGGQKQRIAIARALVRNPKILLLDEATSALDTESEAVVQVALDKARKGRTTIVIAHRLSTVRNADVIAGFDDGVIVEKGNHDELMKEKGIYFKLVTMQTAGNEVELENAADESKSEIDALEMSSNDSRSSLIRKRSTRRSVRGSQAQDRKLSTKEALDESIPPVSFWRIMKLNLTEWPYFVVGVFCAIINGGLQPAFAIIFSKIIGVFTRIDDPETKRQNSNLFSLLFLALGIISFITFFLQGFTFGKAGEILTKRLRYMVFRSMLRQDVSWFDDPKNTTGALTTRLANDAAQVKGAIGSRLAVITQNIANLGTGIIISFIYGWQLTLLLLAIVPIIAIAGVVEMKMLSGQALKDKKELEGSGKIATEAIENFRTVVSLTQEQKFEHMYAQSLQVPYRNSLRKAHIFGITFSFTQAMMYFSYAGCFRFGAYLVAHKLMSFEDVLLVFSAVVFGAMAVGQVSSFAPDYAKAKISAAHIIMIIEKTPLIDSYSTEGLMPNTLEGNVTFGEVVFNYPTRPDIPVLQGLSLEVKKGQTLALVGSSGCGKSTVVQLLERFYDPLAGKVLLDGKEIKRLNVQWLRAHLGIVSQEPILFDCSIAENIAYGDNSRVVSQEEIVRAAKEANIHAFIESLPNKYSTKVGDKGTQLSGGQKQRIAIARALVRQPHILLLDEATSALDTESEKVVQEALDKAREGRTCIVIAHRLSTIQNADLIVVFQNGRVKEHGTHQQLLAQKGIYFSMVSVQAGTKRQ
UniProt P46935: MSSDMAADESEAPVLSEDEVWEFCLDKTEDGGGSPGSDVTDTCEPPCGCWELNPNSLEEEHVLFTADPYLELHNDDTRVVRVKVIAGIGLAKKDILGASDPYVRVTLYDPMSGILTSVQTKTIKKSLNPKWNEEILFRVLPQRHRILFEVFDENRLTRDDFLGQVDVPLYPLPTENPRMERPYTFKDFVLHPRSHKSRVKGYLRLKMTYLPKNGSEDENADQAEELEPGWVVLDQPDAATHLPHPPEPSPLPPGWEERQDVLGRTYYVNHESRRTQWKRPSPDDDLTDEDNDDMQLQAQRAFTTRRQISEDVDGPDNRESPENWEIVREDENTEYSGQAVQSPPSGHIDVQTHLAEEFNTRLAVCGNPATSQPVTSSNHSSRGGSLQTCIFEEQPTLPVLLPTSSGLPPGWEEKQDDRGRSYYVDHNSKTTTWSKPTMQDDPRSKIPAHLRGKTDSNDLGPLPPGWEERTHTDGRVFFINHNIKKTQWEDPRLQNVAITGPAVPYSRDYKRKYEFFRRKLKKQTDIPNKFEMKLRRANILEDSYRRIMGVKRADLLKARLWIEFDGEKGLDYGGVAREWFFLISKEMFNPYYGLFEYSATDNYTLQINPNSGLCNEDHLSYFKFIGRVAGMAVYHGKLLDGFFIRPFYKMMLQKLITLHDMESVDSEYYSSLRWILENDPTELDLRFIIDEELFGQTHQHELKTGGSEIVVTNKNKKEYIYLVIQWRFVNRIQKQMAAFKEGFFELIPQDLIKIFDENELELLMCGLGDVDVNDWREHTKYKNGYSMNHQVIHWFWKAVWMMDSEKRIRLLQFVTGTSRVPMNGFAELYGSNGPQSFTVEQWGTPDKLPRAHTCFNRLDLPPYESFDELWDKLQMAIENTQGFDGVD
UniProt Q9CQJ4: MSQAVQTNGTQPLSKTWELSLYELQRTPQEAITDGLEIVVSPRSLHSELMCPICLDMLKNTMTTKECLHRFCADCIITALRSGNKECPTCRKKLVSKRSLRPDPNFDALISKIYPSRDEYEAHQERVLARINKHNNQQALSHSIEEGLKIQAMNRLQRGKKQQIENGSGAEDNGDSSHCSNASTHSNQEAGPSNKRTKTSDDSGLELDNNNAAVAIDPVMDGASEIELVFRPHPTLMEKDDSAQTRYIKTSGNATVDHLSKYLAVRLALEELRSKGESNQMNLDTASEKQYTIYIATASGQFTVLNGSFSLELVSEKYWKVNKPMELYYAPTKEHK

These substances were tested against P-glycoprotein (human), as expressed on NIH 3T3 MDR1 cells (human) (UniProt P08183) (assay: affinity purification with mass spectrometry; Pgp enriched with 15D3 or UIC2 mAb on Protein G magnetic beads from membrane preparations of NIH 3T3 MDR1 cells; nine washes with RIPA buffer; cross-linked with DSSO or BS2Gd0/d4 on living cells before, or with DSSO on-bead after immunoprecipitation; on-bead trypsin digestion, LC-MS/MS; proteins found with Pgp).

binding, binds:
AHNAK (from UniProt E9Q616 1-5656)
NEDD4 (from UniProt P46935 1-887) (enzyme)
RING finger protein 2 (from UniProt Q9CQJ4 1-336) (enzyme)
